Measured values: PubChem BioAssay AID1671190 (National Center for Advancing Translational Sciences (NCATS), 2021)
Values joined by “and” are separate entries in the source; they are usually repeats but may differ in a detail not shown here. Equal values may be shown once. In all, about 580,000 compounds went through this assay and about 6,100 (1.1%) were called active. This list was built around the results that the source calls inconclusive (neither active nor inactive); the mix of calls is not that of the screen. The call rests on the fitted dose curve; in most records, active means well fitted inhibition curve with a large enough effect; inconclusive means small, poorly fitted or top-dose-only effect, or another doubt; inactive means no such curve, though single readings can be large or run the other way. Potencies beside an inconclusive call are fits to weak or partial responses and may not hold up.

Sequences of proteins named here, by UniProt entry; tags and fusion partners are left off. A change or cut given only in a name is not applied to a line headed by its entry.
UniProt P18054: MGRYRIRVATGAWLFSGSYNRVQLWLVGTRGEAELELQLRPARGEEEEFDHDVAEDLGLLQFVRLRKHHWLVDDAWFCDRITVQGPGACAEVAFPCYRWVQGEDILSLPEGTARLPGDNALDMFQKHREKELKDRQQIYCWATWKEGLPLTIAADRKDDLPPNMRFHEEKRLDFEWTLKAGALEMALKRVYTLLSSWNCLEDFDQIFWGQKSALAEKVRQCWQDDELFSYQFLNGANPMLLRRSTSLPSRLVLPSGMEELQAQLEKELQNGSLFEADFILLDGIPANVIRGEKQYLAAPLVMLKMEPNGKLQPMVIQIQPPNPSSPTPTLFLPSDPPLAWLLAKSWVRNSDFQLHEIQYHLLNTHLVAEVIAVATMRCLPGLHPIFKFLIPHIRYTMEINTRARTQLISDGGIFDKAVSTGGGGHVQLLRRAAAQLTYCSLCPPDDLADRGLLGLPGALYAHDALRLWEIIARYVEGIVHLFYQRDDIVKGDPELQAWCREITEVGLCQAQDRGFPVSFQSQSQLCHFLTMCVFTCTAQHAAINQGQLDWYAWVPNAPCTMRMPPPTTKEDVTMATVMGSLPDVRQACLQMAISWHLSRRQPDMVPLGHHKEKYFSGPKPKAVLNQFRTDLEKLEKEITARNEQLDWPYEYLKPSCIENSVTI

Biological target: Polyunsaturated fatty acid lipoxygenase ALOX12 (Homo sapiens) (UniProt P18054)
Test: Primary qHTS assay for inhibitors of human arachidonate 12S-lipoxygenase (ALOX12): Round 2
Settings: purified 12hLO, xylenol orange hydroperoxide absorbance; series mostly up to 108 µM
How it was run: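 Purified human 12hLO (150 nM final) in 25 mM Hepes, 0.01% Triton X-100, pH 7.0 was preincubated 15 min at room temperature with compound. Then 40 uM arachidonic acid was added, 30 min. Hydroperoxide was read by Fe-XO absorbance ratio 573/405 nm.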
Potency means the concentration at half of the fitted maximal effect.

Compound	Potency
O=C(NCCn1ccc2ccccc21)c1ccc(Cl)cc1	inconclusive: 112 µM [inhibitor, single point]
NC(=O)NC(=O)CSC1=Nc2ccccc2CS1	inconclusive: 44.7 µM [inhibitor, partial curve, poor fit]
Cc1ccccc1C(=O)N1CCC(c2nn(-c3ccc(Cl)cc3)c(=O)[nH]2)CC1	active: 44.7 µM
CCCCCCN1C(=O)C(O)=C(C(C)=O)C1c1ccc(Cl)cc1 (stereo not drawn)	inconclusive: 3.98 µM [inhibitor, full curve, poor fit]
Cc1ccc(-c2ncc(NC(=O)Cc3ccccc3C)cn2)cc1	inactive
O=C(C1CC1)N1CCC(c2noc(-c3ccccn3)n2)C1 (stereo not drawn)	inactive
CCn1c(COc2ccc3c(c2)OCO3)nnc1SCC(=O)c1ccccc1	inactive
O=C(Cc1ccc(F)cc1)NCCNC(=O)c1cc(=O)[nH]c2ccccc12	inactive
CC(C)Oc1ccc(Cc2cnc(=S)[nH]c2N)cc1	active: 35.5 µM
CS(=O)(=O)Nc1cccc(-c2cncnc2-n2ccnc2)c1	inconclusive: 7.94 µM [inhibitor, full curve, poor fit]
O=C1CSC(=S)N1c1ccc(Cl)c(Cl)c1	inconclusive: 39.8 µM [inhibitor, partial curve, poor fit]
O=C1CNC(=S)N1c1nc2ccccc2s1	inactive
CCOC(=O)N1CCN(Cc2ccccn2)CC1	inconclusive: 0.794 µM [inhibitor, partial curve, poor fit]
CC(OC(=O)c1ccccc1Nc1ccc(SC(F)F)cc1)C(N)=O (stereo not drawn)	inconclusive: 44.7 µM [inhibitor, partial curve, poor fit]
COc1ccc(-c2noc(N3CCC(C(=O)N4CCN(c5cccc(C)c5C)CC4)CC3)n2)cc1	inconclusive: 89.1 µM [inhibitor, partial curve, poor fit]
COCCn1c(=S)[nH]c2ncccc2c1=O	inconclusive: 4.47 µM [inhibitor, full curve, poor fit]
COC(=O)c1sc(NC(=O)COc2c(C)cccc2C)nc1C	inconclusive: 63.1 µM [inhibitor, partial curve, poor fit]
Cn1c(=O)oc2cc(S(=O)(=O)Nc3cccc(C(=O)O)c3)ccc21	inconclusive: 70.8 µM [inhibitor, partial curve, poor fit]
CC(=O)C1=C(O)C(=O)N(c2nccs2)C1c1ccc(F)cc1 (stereo not drawn)	inconclusive: 39.8 µM [inhibitor, partial curve, poor fit]
N#Cc1cccc(C(=O)N2CCC3(CC2)NC(=O)N(Cc2ccc(Cl)cc2)C3=O)c1	inconclusive: 28.2 µM [inhibitor, full curve]
CCOc1ccc(-c2[nH]nc3c2C(c2cc(OC)c(OC)cc2OC)C(C#N)=C(N)O3)cc1OC (stereo not drawn)	inconclusive: 44.7 µM [inhibitor, partial curve, poor fit]
COc1cc(-c2csc(-c3c(C)c(C)nn(C)c3=O)n2)ccc1OC(F)F	inactive

Some of these compounds in order of count of non-hydrogen atoms, rising.
Compound	Potency
COC(=O)c1sc(NC(=O)COc2c(C)cccc2C)nc1C	inconclusive: 63.1 µM [inhibitor, partial curve, poor fit]
O=C(Cc1ccc(F)cc1)NCCNC(=O)c1cc(=O)[nH]c2ccccc12	inactive
CCn1c(COc2ccc3c(c2)OCO3)nnc1SCC(=O)c1ccccc1	inactive

(cont.)

Compound	Potency
CCc1nc(C)c(CC(=O)N[C@@H]2CCNC[C@H]2O)c(=O)[nH]1	inactive
O=C(/C=C/c1ccc(OC(F)F)cc1)Nc1cccc(S(=O)(=O)N2CCOCC2)c1	inconclusive: 7.08 µM [inhibitor, full curve]
Cc1ccc(C(C)C)cc1S(=O)(=O)NC1CC(C)(C)NC(C)(C)C1	inconclusive: 35.5 µM [inhibitor, partial curve]
Cc1cccc(N2Cc3c(ncnc3N3CCOCC3)CN(C)C2=O)c1	inconclusive: 7.94 µM [inhibitor, full curve]
Cn1c(NCc2ccccc2)nc2c1c(=O)n(Cc1ccc(Br)cc1)c(=O)n2C	inactive
CCOC(=O)c1c(NC(=O)c2cc(-c3cccc(OC)c3)on2)sc2c1CCCC2	inconclusive: 89.1 µM [inhibitor, partial curve, poor fit]
Cc1noc(C)c1-c1nccc(N(C)Cc2ccco2)n1	inconclusive: 6.31 µM [inhibitor, full curve]
COc1ccccc1CNc1ncnc2ccc(-c3ccc(C(=O)N(C)C)cc3)cc12	inconclusive: 25.1 µM [inhibitor, partial curve, poor fit]
CC(=O)C1=C(O)C(=O)N(CCc2c[nH]c3ccccc23)C1c1ccco1 (stereo not drawn)	inconclusive: 5.01 µM [inhibitor, full curve, poor fit]
CCC(=O)N1CC(C(=O)N2CCCCC2)[C@H](c2ccncc2)C1 (stereo partly drawn)	inconclusive: 2.82 µM [inhibitor, full curve, poor fit]
COc1cc(OC)cc(C(=O)N[C@H](C(=O)NC2CCCc3ccccc32)C(C)C)c1 (stereo partly drawn)	inconclusive: 44.7 µM [inhibitor, single point]
COc1cccc(CNC(=O)Cc2c(C(=O)O)c(C)cn2C)c1	inconclusive: 158 µM [inhibitor, partial curve, poor fit]
Nc1c(C(=O)Nc2ccccc2)sc2nc(N3CCOCC3)c3c(c12)CCCC3	inconclusive: 7.94 µM [inhibitor, full curve, poor fit]
Cc1cccc(NC(=S)Nc2ccccn2)c1	active: 28.2 µM
O=[N+]([O-])c1cc(S(=O)(=O)C(F)(F)F)ccc1N1CCN(c2ccccc2)CC1	inactive
CC(=O)N1CCN(C(C(=O)O)c2c[nH]c3cc(Br)ccc23)CC1 (stereo not drawn)	inconclusive: 1.41 µM [inhibitor, full curve, poor fit]
CCNC(=O)COC(=O)c1cc(-c2ccco2)nc2ccccc12	active: 35.5 µM and active: 7.08 µM
CCCn1c(CN2CCN(c3cccc(Cl)c3)CC2)nc2c1c(=O)n(C)c(=O)n2C	inconclusive: 15.8 µM [inhibitor, single point]
Cn1nccc1CN1CCn2c(nnc2C2CCCNC2)C1 (stereo not drawn)	inactive
CC(=O)c1cccc(NC(=O)CC(C)c2ccccc2)c1 (stereo not drawn)	inactive
O=C(NCc1cccs1)c1ccc(CSc2nc3cccnc3n2Cc2ccccc2F)cc1	inconclusive: 1 µM [inhibitor, full curve, poor fit]
